# Data as given in the supplement of paper PMC6445147.
# Values scatter widely in this assay.
# B1: human tRNA-Pro; a variant is named by its letters at N, in order (parent)
# chain: GGCTCGTTGGTCTAGNGGTATGATTCTCGCTTAGGGTGCGAGAGGTCCCGGGTTCNNATCCCGGACGAGCCC
# Columns and labels:
# [1] = variants of: B1; experiment: tRNA Pol-III promoter activity, log2 (circRNA frequency / plasmid DNA frequency) (log2 ratio); higher = stronger promoter activity; details: HEK293T; construct: no Pol-II promoter ((-)CMV library)
# [2] = variants of: B1; experiment: tRNA 3' processing efficiency (processed reads / all reads, maximum-likelihood estimate) (fraction); higher = more efficient 3' processing; details: HEK293T; construct: no Pol-II promoter ((-)CMV library)
Variant,tRNA Pol-III promoter activity (log2) [1],tRNA 3' processing efficiency [2]
GGCTCGTTGGTCTAGGCGAGTGATTCTCGCTTAGGGTGCGAGAGGTCCCGGGTTCTAATCCCGGACGAGCCC [GTA G17C T19A A20G],7.1,0.44
GGCTCGTTGGTCTAGGTGGATGATTCTCGCTTAGGGTGCGAGAGGTCCCGGGTTCTAATCCCGGACGAGCCC [GTA G17T T19G],4.32,0.77
GGCTCGTTGGTCTAGGTGTATGATTCTCGCTTAGGGTGCGAGAGGTCCCGGGTTCTACTCCCGGACGAGCCC [GTA G17T A58C],3.33,0.37
GGCTCGTTGGTCTAGGTGTATGATTCTCGCTTAGGGTGCGAGAGGTCCCGGGTTCTATTCCCGGACGAGCCC [GTA G17T A58T],2.81,0.49
GGCTCGTTGGTCTAGGTGTATGATTCTCGCTTAGGGTGCGAGAGGTCCCGGGTTCTAGTCCCGGACGAGCCC [GTA G17T A58G],2.67,0.29
GGCTCGTTGGTCTAGCTGTATGATTCTCGCTTAGGGTGCGAGAGGTCCCGGGTTCTAATCCCGGACGAGCCC [CTA G17T],3.55,0.2
GGCTCGTTGGTCTAGGCGTATGATTCTCGCTTAGGGTGCGAGAGGTCCCGGGTTCTAAGCCCGGACGAGCCC [GTA G17C T59G],4.94,0.25
GGCTCGTTGGTCTAGGCGTATGATTCTCGCTTAGGGTGCGAGAGGTCCCGGGTTCTAACCCCGGACGAGCCC [GTA G17C T59C],5.53,0.33
GGCTCGTTGGTCTAGGCGTTTGATTCTCGCTTAGGGTGCGAGAGGTCCCGGGTTCTAATCCCGGACGAGCCC [GTA G17C A20T],4.52,0.57
GGCTCGTTGGTCTAGATGTATGATTCTCGCTTAGGGTGCGAGAGGTCCCGGGTTCTAATCCCGGACGAGCCC [ATA G17T],4.17,0.46
GGCTCGTTGGTCTAGCCGCATGATTCTCGCTTAGGGTGCGAGAGGTCCCGGGTACTAAACCCGGACGAGCCC [CTA G17C T19C T54A T59A],5.16,0.71
GGCTCGTTGGTCTAGGTGTGTGATTCTCGCTTAGGGTGCGAGAGGTCCCGGGTTCTAATCCCGGACGAGCCC [GTA G17T A20G],3.46,0.6
GGCTCGTTGGTCTAGGTGTATGATTCTCGCTTAGGGTGCGAGAGGTCCCGGGATCTAATCCCGGACGAGCCC [GTA G17T T53A],3.03,0.2
GGCTCGTTGGTCTAGGCATATGATTCTCGCTTAGGGTGCGAGAGGTCCCGGGTTCTAATCCCGGACGAGCCC [GTA G17C G18A],3.62,0.5
GGCTCGTTGGTCTAGGCGTATGATTCTCGCTTAGGGTGCGAGAGGTCCCGGGTTCTAGTCCCGGACGAGCCC [GTA G17C A58G],5.02,0.17
GGCTCGTTGGTCTAGGCGTATGATTCTCGCTTAGGGTGCGAGAGGTCCCGGGTTCTATTCCCGGACGAGCCC [GTA G17C A58T],2.78,0.38
GGCTCGTTGGTCTAGGCGTTTGATTCTCGCTTAGGGTGCGAGAGGTCCCGGGTTCTATTCCCGGACGAGCCC [GTA G17C A20T A58T],4.36,0.25
GGCTCGTTGGTCTAGGCGTATGATTCTCGCTTAGGGTGCGAGAGGTCCCGGGTTCTAATCCCGGACGAGCCC [GTA G17C],1.42,0.41
GGCTCGTTGGTCTAGGTGTATGATTCTCGCTTAGGGTGCGAGAGGTCCCGGGTTCTAATCCCGGACGAGCCC [GTA G17T],1.15,0.34

# Another view of part of the listing above:
Variant	tRNA Pol-III promoter activity (log2) [1]	tRNA 3' processing efficiency [2]
GGCTCGTTGGTCTAGGTGTATGATTCTCGCTTAGGGTGCGAGAGGTCCCGGGTTCTATTCCCGGACGAGCCC [GTA G17T A58T]	2.81	0.49
GGCTCGTTGGTCTAGGTGTATGATTCTCGCTTAGGGTGCGAGAGGTCCCGGGTTCTAATCCCGGACGAGCCC [GTA G17T]	1.15	0.34
